PubChem BioAssay AID1224827 | NIAID | 2016
The whole screen tested about 3,800 reagents; shown is an unselected part. About 2,200 of them (57%) count as active. 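Active means a strong reporter change in either direction; calls are per siRNA, not per gene; qiagen siRNAs gave weaker effects.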 Entries without a mark were called inactive. The numbers tell different reagents against one gene apart. Further read-outs or replicates are left out here.

Test: 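Confirm genes whose knock-down changes LPS-driven TNF promoter activity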 (follow-up of hits)
System: RAW264.7 G9 mouse macrophage reporter clone
Reagents: single siRNA against mouse genes, 100 nM siRNA
Time to read-out: siRNA for 2 days, then LPS about 16 h
Treatment: bacterial lipopolysaccharide (LPS), 10 ng/ml, cells fixed after overnight (about 16 h) stimulation
Read-out: 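TNF promoter reporter red fluorescence in nuclei, background subtracted, normalised per plate and to non-targeting control siRNA, as z-scores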
Reading the numbers: TNF reporter z-score, mean and TNF reporter z-score: higher = stronger Tnf promoter reporter signal; gene median z, three same-vendor siRNAs: higher = stronger Tnf reporter signal for the gene
Active means: 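An siRNA is called active when its mean z-score over replicates is at least +2 or at most -2; control wells get no call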

| gene | reagent | TNF reporter z-score, mean | gene median z, three same-vendor siRNAs | TNF reporter z-score, repeat 1 |
| --- | --- | --- | --- | --- |
| Arpc2 | 1 | 1.5 | -0.658 | 3.25 |
| Arpc2 | 2 | -0.658 | -0.658 | -0.38 |
| Arpc2 | 3 | -1.85 | -0.658 | -1.84 |
| Pold3 | 1 | -0.291 | -1.71 | -1.32 |
| Pold3 | 2 | -1.86 | -1.71 | -2.34 |
| Pold3 | 3 | -2.39 (active) | -1.71 | -2.73 |
| Pold3 | 4 | 2.78 (active) | 1.34 | 4.07 |
| Pold3 | 5 | 1.23 | 1.34 | 1.75 |
| Pold3 | 6 | 0.684 | 1.34 | 1.2 |
| Bach1 | 1 | 0.87 | -1.25 | 1.07 |
| Bach1 | 2 | -1.25 | -1.25 | -1.43 |
| Bach1 | 3 | -5.05 (active) | -1.25 | -5.36 |
| Bach1 | 4 | 2.44 (active) | 0.84 | 4.1 |
| Bach1 | 5 | 1.86 | 0.84 | 2.83 |
| Bach1 | 6 | -3.65 (active) | 0.84 | -3.51 |
| Psmd4 | 1 | -2.6 (active) | -3.04 | -2.61 |
| Psmd4 | 2 | -2.76 (active) | -3.04 | -2.05 |
| Psmd4 | 3 | -4.6 (active) | -3.04 | -5.17 |
| Psmd4 | 4 | 12.9 (active) | 6.26 | 20.7 |
| Psmd4 | 5 | 11.9 (active) | 6.26 | 17.4 |
| Psmd4 | 6 | 3.13 (active) | 6.26 | 6.19 |
| Snrnp35 | 1 | 3.61 (active) | -3.43 | 2.3 |
| Snrnp35 | 2 | -3.9 (active) | -3.43 | -2.08 |
| Snrnp35 | 3 | -4.83 (active) | -3.43 | -4.79 |
| Snrnp35 | 4 | 3.29 (active) | 1.15 | 5.6 |
| Snrnp35 | 5 | 1.9 | 1.15 | 4.53 |
| Snrnp35 | 6 | -0.275 | 1.15 | 1.32 |
| Ctsw | 1 | -1.36 | -2.97 | -0.767 |
| Ctsw | 2 | -3.21 (active) | -2.97 | -3.07 |
| Ctsw | 3 | -3.96 (active) | -2.97 | -2.87 |
| Tex261 | 1 | -2.36 (active) | -4.3 | -2.36 |
| Tex261 | 2 | -4.3 (active) | -4.3 | -3.91 |
| Tex261 | 3 | -5.36 (active) | -4.3 | -5.26 |
| Tex261 | 4 | 5.71 (active) | -0.134 | 9.43 |
| Tex261 | 5 | -1.41 | -0.134 | -1.07 |
| Tex261 | 6 | -0.91 | -0.134 | 0.805 |
| Inhca | 1 | -1.05 | -2.86 | -0.143 |
| Inhca | 2 | -3.12 (active) | -2.86 | -3.29 |
| Inhca | 3 | -3.17 (active) | -2.86 | -3.57 |
| Inhca | 4 | 1.29 | -0.00189 | 2.32 |
| Inhca | 5 | -0.00189 | -0.00189 | -0.00986 |
| Inhca | 6 | -1.25 | -0.00189 | -0.0716 |
